# Several values for one entry are separate records, joined by “and”; a condition that tells them apart may be missing. Equal values may be shown once. Among all 320,000 compounds or so, about 22,000 (6.9%) were called active. The inconclusive results got no clear call from the source; some entries with a clear call stand among them for comparison. The call rests on the fitted dose curve; in most records, active means well fitted inhibition curve with a large enough effect; inconclusive means small, poorly fitted or top-dose-only effect, or another doubt; inactive means no such curve, though single readings can be large or run the other way. Potencies beside an inconclusive call are fits to weak or partial responses and may not hold up.
# Assay: Primary qHTS for delayed death inhibitors of the malarial parasite plastid, 96 hour incubation
# Conditions: P. falciparum luciferase reporter growth; series mostly up to 28.7 µM; activity change, negative = inhibition: at the top concentration
# How it was run: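 96 h incubation, 37 C, 5% CO2, of luciferase-reporter P. falciparum-infected RBCs (2% hematocrit, 0.05% parasitemia final) with test compounds; endpoint luminescence.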
# On the % scale 0 is the no-effect control and ±100 the full control effect; potency means the concentration at half of the fitted maximal effect.
SMILES,"activity change, negative = inhibition",Potency
Cc1cc(Cl)ccc1NC(=S)NC1CCCC1,inactive: -29.8%,–
NC(=O)COC(=O)c1cccnc1Nc1ccccc1F,inactive: 26.7%,–
COc1cccc(NC(=O)CN(C)C(C)C(=O)Nc2ccc(C#N)cc2)c1 (stereo not drawn),–,"inconclusive: 5.22 µM [inhibitor, partial curve, poor fit]"
CC(C)(C)C(=O)Nc1ccc(N2CCN(c3ccc(C(F)(F)F)cn3)CC2)nc1,–,"inconclusive: 3.29 µM [inhibitor, full curve]"
CCc1nc(N2CCN(CC(=O)NCC3CCCO3)CC2)c(C#N)c2c1COC(C)(C)C2 (stereo not drawn),–,"inconclusive: 9.28 µM [inhibitor, partial curve, poor fit]"
O=C(N/N=C/c1ccccc1F)c1cc2c(ccc3ccccc32)o1,inactive: -27.9%,–
O=C(Nc1ccncc1)c1ccc(Cl)c(S(=O)(=O)N2CCCC2)c1,–,"inconclusive: 2.94 µM [inhibitor, full curve, poor fit]"
O=C(N[C@@H](Cc1ccccc1)C(=O)NC1CC1)c1ccc(Cl)cc1,inactive: -5.69%,–
CNc1nc(SCc2ccc(C)cc2)nc2c1CCCC2,–,active: 13.1 µM
Cc1c(C(=O)Nc2c3c(nn2C(C)(C)C)CS(=O)(=O)C3)cccc1[N+](=O)[O-],–,"inconclusive: 16.5 µM [inhibitor, single point]"
COc1ncccc1C(=O)N1CCCC(N2CCN(c3cccc(Cl)c3)CC2)C1 (stereo not drawn),–,"inconclusive: 14.7 µM [inhibitor, single point]"
O=C(CN1CCN(S(=O)(=O)c2ccc(Cl)cc2)CC1)Nc1ccc2c(c1)OCCO2,–,"inconclusive: 10.4 µM [inhibitor, single point]"
Cc1nn(Cc2cccc(C(=O)N3N=C(C(F)F)CC3(O)C(F)F)c2)c(C)c1[N+](=O)[O-] (stereo not drawn),inactive: -26.5%,–
CCC(=O)N(CCc1ccccc1)Cc1cc2cccc(C)c2[nH]c1=O,inactive: -18.9%,–
Cc1ccccc1NC(=O)Cc1nc(COC(=O)Cc2ccccc2)cs1,–,"inconclusive: 18.5 µM [inhibitor, single point]"
CCCN(CCC)C(=O)CC(c1ccccc1)c1ccc(C)cc1O (stereo not drawn),–,"inconclusive: 10.4 µM [inhibitor, single point]"
COc1cccc(C(=O)C2CCCN(Cc3cccc(-n4cccn4)c3)C2)c1 (stereo not drawn),–,"inconclusive: 18.5 µM [inhibitor, partial curve, poor fit]"
Cc1cccc(OCCn2c(=O)n(C)c3ccccc32)c1,–,"inconclusive: 10.4 µM [inhibitor, single point]"
Cc1ccc(CNC(=O)c2ccc(N3CCC4(CC3)CC(c3cccc(Br)c3)=NO4)c(N)c2)cc1,–,"inconclusive: 18.5 µM [inhibitor, single point]"
Cn1c(=O)c2c(ncn2CC(=O)OCC(=O)Nc2ccc(F)cc2F)n(C)c1=O,inactive: 19.4%,–
CCCSc1nc2c(c(=O)[nH]c(=O)n2C)n1CCc1ccccc1,–,"inconclusive: 2.62 µM [inhibitor, partial curve]"
CCCn1c(SCc2ccc(Cl)cc2)nc2c1c(=O)[nH]c(=O)n2C,–,"inconclusive: 11.7 µM [inhibitor, single point]"
Cc1[nH]n(-c2ccccc2)c(=O)c1C(C[N+](=O)[O-])c1ccc(F)cc1 (stereo not drawn),–,"inconclusive: 14.7 µM [inhibitor, single point]"

# Random excerpt: four records from the list
SMILES,"activity change, negative = inhibition",Potency
Cc1[nH]n(-c2ccccc2)c(=O)c1C(C[N+](=O)[O-])c1ccc(F)cc1 (stereo not drawn),–,"inconclusive: 14.7 µM [inhibitor, single point]"
NC(=O)COC(=O)c1cccnc1Nc1ccccc1F,inactive: 26.7%,–
Cc1c(C(=O)Nc2c3c(nn2C(C)(C)C)CS(=O)(=O)C3)cccc1[N+](=O)[O-],–,"inconclusive: 16.5 µM [inhibitor, single point]"
CCC(=O)N(CCc1ccccc1)Cc1cc2cccc(C)c2[nH]c1=O,inactive: -18.9%,–

# Next entries.

SMILES,"activity change, negative = inhibition",Potency
CCCS(=O)(=O)N1CCN(Cc2ccco2)CC1,–,"inconclusive: 18.5 µM [inhibitor, single point]"
CCC(C)NC(=O)c1cn(CC)c2cc(N3CCN(C(=O)c4ccco4)CC3)c(F)cc2c1=O (stereo not drawn),–,active: 4.15 µM
COc1cc(C(CC(=O)N2CCN(c3ccccc3)CC2)c2c(OC)cc(OC)c3ccc(=O)oc23)cc(OC)c1OC (stereo not drawn),–,active: 4.65 µM
CCOC(=O)c1cnn(-c2ccc(C)cc2)c1N,inactive: 106%,–
O=C(CNC(=O)OCc1ccccc1)NCC(=O)Nc1ccc(Br)cc1C(=O)c1ccccc1,–,"inconclusive: 14.7 µM [inhibitor, partial curve]"
CCOc1ccc(OCC)c(NC(=O)CCSCCc2ccccn2)c1,–,"inconclusive: 18.5 µM [inhibitor, single point]"
O=C(Nc1ccc(S(=O)(=O)N2CCCCCC2)cc1)c1ccco1,–,"inconclusive: 11.7 µM [inhibitor, partial curve, poor fit]"
Cc1occc1C(=O)N1CCN(S(=O)(=O)c2ccccc2)CC1,–,"inconclusive: 4.15 µM [inhibitor, full curve, poor fit]"
CCOCC(=O)N1CCN(c2cccc(Cl)c2)CC1,inactive: 52.7%,–
CC(C)OC(=O)c1cc(-c2ccc(C=O)o2)ccc1Cl,–,active: 14.7 µM
CCOC(=O)C1CCN(Cc2cc(Cl)c3ccccc3c2O)CC1,–,active: 1.17 µM
CC(=O)N1CCN(Cc2nc3cc(NC(=O)C4CCCCC4)ccc3n2C)CC1,–,active: 1.85 µM
Cc1nn(C)c(C)c1S(=O)(=O)N1CCCC(C(=O)NCCc2ccc(Cl)cc2)C1 (stereo not drawn),–,"inconclusive: 20.8 µM [inhibitor, partial curve, poor fit]"
C#CCOc1ccc(C2C3=C(CC(C)(C)CC3=O)N(CC(=O)O)C3=C2C(=O)CC(C)(C)C3)cc1OC,–,"inconclusive: 18.5 µM [inhibitor, single point]"
CC1=NN(C(=O)CCc2ccccc2O)C(O)(C(F)(F)F)C1 (stereo not drawn),inactive: -3.05%,–
NC(=O)[C@H]1CC2(CC(c3cccc(NC(=O)[C@H]4CCC(=O)N4)c3)=NO2)CN1C(=O)CC(c1ccccc1)c1ccccc1 (stereo partly drawn),–,"inconclusive: 9.28 µM [inhibitor, partial curve]"
COC(=O)c1sccc1NC(=O)c1cc(OC)c(OC)c(OC)c1,–,"inconclusive: 0.185 µM [inhibitor, partial curve, poor fit]"
Cc1ccc(C2NC(=S)NC3=C2C(=O)CCC3)cc1 (stereo not drawn),–,"inconclusive: 0.0104 µM [inhibitor, full curve, poor fit]"
CCCCc1nc2cc(C(=O)NC3CCOC(C)(C)C3)ccc2o1 (stereo not drawn),–,"inconclusive: 11.7 µM [inhibitor, single point]"
CCc1noc(C)c1C(=O)Nc1nc(-c2ccc(OC)cc2OC)cs1,–,active: 2.33 µM
C[C@H]1[C@H](C)CC[C@]2(C)CC[C@]3(C)C(=CC(=O)C4[C@@]5(C)CC[C@H](O)C(C)(C)C5CC[C@]43C)[C@H]12 (stereo partly drawn),–,"inconclusive: 2.62 µM [inhibitor, full curve]"
COc1ccc(NC(=O)c2cccc(S(=O)(=O)N3CCCCCC3)c2)cc1,inactive: 6.32%,–
Cc1c(N=C(N)/N=C(\N)Nc2ccc(Br)cc2)c(=O)n(-c2ccccc2)n1C,–,"inconclusive: 2.94 µM [inhibitor, single point]"

SMILES,"activity change, negative = inhibition",Potency
CCC1(C)Cc2ccccc2-c2nc3n(c(=O)c21)CCS3 (stereo not drawn),–,"inconclusive: 18.5 µM [inhibitor, single point]"
Cc1ccc(C)c(Sc2ccc(NC(=O)CCN3C(=O)NC4(CCCC4)C3=O)cc2)c1,inactive: -10.2%,–
O=C(c1cc2ccccc2oc1=O)N1CCN(C(=O)C2CCCO2)CC1 (stereo not drawn),inactive: -15.9%,–
C=CCc1cccc(/C=N/NC(=O)CCC(=O)Nc2ccc(C)cc2)c1O,inactive: 0%,–
C/C(=N\Nc1nnc2c3ccccc3n(C)c2n1)c1ccc(C)o1,–,"inconclusive: 18.5 µM [inhibitor, single point]"
O=C(c1ccccc1)c1cnc(-c2ccc(Cl)cc2)s1,inactive: 304%,–
COc1cccc(CN=CC2=C(O)CC(C)(C)CC2=O)c1OC,–,"inconclusive: 20.8 µM [inhibitor, single point]"
CC(=O)c1cc(-c2ccccc2)n(CCC(=O)NC2CCCC2)c1C,–,"inconclusive: 16.5 µM [inhibitor, partial curve, poor fit]"
CCCCN(CCCC)S(=O)(=O)c1ccc(NC(=O)c2cccs2)cc1,–,active: 0.415 µM
[O]=[Cr](=[O])([OH])[O][Cr](=[O])(=[O])[OH],–,"inconclusive: 15.1 µM [inhibitor, single point] and inconclusive: 19 µM [inhibitor, single point]"
COc1ccccc1N1CCN(C2CCCC(C)C2)CC1 (stereo not drawn),–,"inconclusive: 1.04 µM [inhibitor, partial curve, poor fit]"
COc1ccc(N2CC(C)Cn3c2nc2c3c(=O)n(Cc3ccccc3)c(=O)n2C)c(OC)c1 (stereo not drawn),–,active: 8.28 µM
CCN1CC(CN(C)Cc2cn(-c3ccc(C)cc3)nc2-c2cccc(C)c2)CC1=O (stereo not drawn),–,"inconclusive: 13.1 µM [inhibitor, single point]"
COc1ccc(NC(=O)COc2ccccc2)cc1Cl,–,"inconclusive: 18.5 µM [inhibitor, single point]"
CC(=O)Nc1ccc(C(=O)CSc2nnnn2C(C)C)cc1,–,"inconclusive: 18.5 µM [inhibitor, single point]"
COc1ccc(CN2CCNC(=O)C2CC(=O)N(C)Cc2nccs2)cc1OC (stereo not drawn),–,active: 9.28 µM
CN(C)C(=O)c1nc2ccc(Cl)cn2c1CNCc1ccccc1OC(F)(F)F,inactive: -0.931%,–
COc1ccccc1NS(=O)(=O)c1ccc2[nH]c(=O)[nH]c2c1,–,"inconclusive: 9.28 µM [inhibitor, partial curve, poor fit]"
O=C(c1ccccc1[N+](=O)[O-])N1N=C(c2ccccc2)CC1(O)C(F)(F)F (stereo not drawn),–,"inconclusive: 13.1 µM [inhibitor, single point]"
Cc1ccc(NC(=O)CCS(=O)(=O)c2ccccc2)cc1S(=O)(=O)N1CCCCCC1,–,"inconclusive: 11.7 µM [inhibitor, single point]"
COc1ccc(NC(=O)N2c3ccccc3C(C)=CC2(C)C)cc1,inactive: 36.8% [at 5.75 µM],–
CCOC(=O)C(=O)N1CCN(CC)CC1,–,"inconclusive: 1.85 µM [inhibitor, full curve, poor fit]"

# — PubChem BioAssay AID504834 (National Center for Advancing Translational Sciences (NCATS), 2011)
